Laboratory results reported in PubChem BioAssay AID493014 (National Center for Advancing Translational Sciences (NCATS), 2011).
This is one part of the list. These are further read-outs of the screen, such as a control signal, another cell line or another target. No call is given for them. Compounds called inactive in the main read-out are mostly missing here. Potencies come from curve fits of mixed quality, noted in brackets.

Assay: qHTS Assay to Find Inhibitors of Chronic Active B-Cell Receptor Signaling
Conditions: ABC-DLBCL IkBa-CBG/CBR reporter, luminescence ratio (green luciferase fused to IkBa over red control in TMD8 lymphoma cells), 4 h
Method in brief: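 TMD8 ABC-DLBCL cells carrying doxycycline-inducible green luciferase fused to IkappaBalpha plus unfused red luciferase were exposed to compounds (up to 46 uM) for 4 hrs at 37C. Activity came from the overlap-corrected green/red luminescence ratio.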

[1] = measured here: CBR red luminescence, cell number
[2] = measured here: IkBa-CBG green luminescence

SMILES | AC50 [1] | AC50 [2]
CC(C)N(Cc1nc(-c2ccccc2)no1)C(=O)C(C)(C)C | 0.731 µM [falling, partial curve, poor fit] | 
COc1ccccc1/C=N/NC(=O)c1ccc(NC(=O)c2cccc([N+](=O)[O-])c2)cc1 | 35.5 µM [falling, partial curve, poor fit] | 
OCCCC1CCCN(Cc2cn[nH]c2-c2ccc(F)cc2F)C1 (stereo not given) | 1.26 µM [falling, partial curve, poor fit] | 
CCOc1cc(/C=C2/NC(=O)N(Cc3ccccc3F)C2=O)ccc1O |  | 23.1 µM [rising, partial curve, poor fit]
CCOC(=O)CNC(=O)c1ccccc1 | 3.16 µM [falling, partial curve, poor fit] | 
O=C(CN1C(=O)NC2(CCCC2)C1=O)OCc1ccc(Cl)c(Cl)c1 | 0.231 µM [rising, full curve, poor fit] | 
Cn1c(N)c(S(=O)(=O)c2ccc(Br)cc2)c2nc3ccccc3nc21 | 5.01 µM [falling, full curve] | 
COc1ccccc1NC(=O)N(CCN(C)C)Cc1cc2cc(C)ccc2[nH]c1=O | 0.651 µM [falling, full curve, poor fit] | 
COc1cc(/C=C2/SC(=S)N(c3c(C)n(C)n(-c4ccccc4)c3=O)C2=O)ccc1O | 15.8 µM [rising, single point] | 
COc1ccccc1-c1nc(-c2cccc(C)c2)no1 | 7.31 µM [falling, partial curve] | 
CC(=O)C(=Cc1cc(C)n(-c2ccccc2)c1C)C(C)=O | 17.8 µM [rising, partial curve, poor fit] | 
CS(=O)(=O)c1ccc2nc(NC(=O)C3COc4ccccc4O3)sc2c1 (stereo not given) | 0.224 µM [rising, full curve, poor fit] | 
C/C(=N/NC(=O)c1cccs1)c1ccco1 | 18.4 µM [falling, single point] | 
O=C1C2CC=CCC2C(=O)N1CC1CCCO1 (stereo not given) | 25.9 µM [rising, single point] | 
CCOc1cc(C(=O)N/N=C/C2CC=CCC2)cc(OCC)c1OCC (stereo not given) | 16.4 µM [rising, partial curve] | 13 µM [falling, partial curve]
Cc1c(C(=O)Oc2cccc3cccnc23)oc2ccccc12 | 35.5 µM [falling, single point] | 11.2 µM [falling, partial curve]
O=C(Nc1cccc(Cl)c1)c1cc(N=Nc2ccc([N+](=O)[O-])cc2Cl)ccc1O | 0.794 µM [rising, full curve, poor fit] | 
C=CC[C@@H](Cc1ccc(F)cc1)C(=O)OC[C@@H]1CCCN1C(=O)[C@H](CC=C)CC(=O)N(CCO)Cc1ccccc1 | 20.6 µM [falling, single point] | 
Cc1ccc(Nc2nc(COC(=O)COc3ccc(C=O)cc3)cs2)cc1 | 8.2 µM [rising, partial curve, poor fit] | 
COc1ccc(CNC(=O)CSc2nnc3c(n2)[nH]c2ccccc23)cc1 | 35.5 µM [rising, partial curve, poor fit] | 
COc1ccc(/C=C/c2nc(-c3ccccc3O)n[nH]2)cc1OC | 7.31 µM [falling, partial curve, poor fit] | 

Arranged by count of non-hydrogen atoms (ascending): part of the list above.
SMILES | AC50 [1] | AC50 [2]
CCOC(=O)CNC(=O)c1ccccc1 | 3.16 µM [falling, partial curve, poor fit] | 
O=C(CN1C(=O)NC2(CCCC2)C1=O)OCc1ccc(Cl)c(Cl)c1 | 0.231 µM [rising, full curve, poor fit] | 
CCOc1cc(/C=C2/NC(=O)N(Cc3ccccc3F)C2=O)ccc1O |  | 23.1 µM [rising, partial curve, poor fit]

Remaining list, next part:

SMILES | AC50 [1] | AC50 [2]
COC(=O)c1ccc(/C=C2/SC(=S)N(CCCC(=O)Nc3ccc(O)cc3)C2=O)cc1 | 5.62 µM [falling, partial curve, poor fit] | 
O=C(NCCc1ccccc1)c1ccc2c(c1)OCCCO2 | 2.82 µM [falling, full curve] | 
O=C(Cc1ccccc1)NCC(=O)N1CCc2ccccc2C1 | 14.1 µM [falling, partial curve, poor fit] | 
O=C(Cc1ccc(Br)cc1)Nc1ccc(Cl)cc1 | 5.01 µM [rising, partial curve] | 
O=C(O)CSc1ncnc2sc3c(c12)CCCC3 | 14.1 µM [falling, partial curve] | 
CN=C(C)C1=C(O)C(C(=O)OC)C(C)(C)CC1=O (stereo not given) | 3.66 µM [rising, single point] | 
Cc1cc(=O)[nH]c2nnc(-c3ccc(Br)cc3)n12 | 3.55 µM [falling, partial curve, poor fit] | 
O=C(CSc1nnc(-c2ccco2)o1)c1ccccc1Cl | 35.5 µM [falling, single point] | 
COc1ccccc1NC(=O)c1ccc2nsnc2c1 | 6.31 µM [rising, single point] | 
CN(C)c1ccc(P(=O)(Nc2ccc([N+](=O)[O-])cc2)N2CCOCC2)c(NC(=O)c2cccs2)c1 (stereo not given) | 25.9 µM [rising, single point] | 
COc1ccccc1NC(=O)N(Cc1cccs1)Cc1cc2cc3c(cc2[nH]c1=O)OCO3 | 7.31 µM [falling, partial curve, poor fit] | 
Cn1c(=O)c2c(nc(NCC3CCCO3)n2C)n(C)c1=O (stereo not given) | 23.1 µM [falling, single point] | 
CN(C)CCNC(=O)c1csc(Nc2cccc3ccccc23)n1 | 6.31 µM [falling, partial curve, poor fit] | 
O=C(N=C1N=C2C=CC=CN2Cc2ccccc21)c1ccc(S(=O)(=O)N2CCCC2)cc1 |  | 8.91 µM [rising, partial curve, poor fit]
CNC(=S)NNC(=O)c1cccn(Cc2ccc(Cl)cc2Cl)c1=O | 1.12 µM [rising, full curve] | 
Cc1ccc([N+](=O)[O-])cc1N=Nc1c(-c2ccc([N+](=O)[O-])cc2)[nH]n(C(N)=S)c1=O | 5.62 µM [falling, single point] | 1.12 µM [falling, partial curve, poor fit]
c1ccc(-c2nc(N3CCOCC3)sc2-c2ccccc2)cc1 | 0.447 µM [rising, partial curve, poor fit] | 
Cc1cc(C)cc(C(=O)NC(=S)Nc2ccc(Cc3ccncc3)cc2)c1 | 20.6 µM [rising, single point] | 
Fc1cccc(CSc2ccc(-c3ccco3)nn2)c1 | 0.651 µM [rising, full curve, poor fit] | 
Cc1nn(-c2ccccc2)c(Cl)c1C(=O)NNC(=O)c1ccncc1 | 20.6 µM [falling, single point] | 
CCc1ccc(C(=O)COC(=O)C(CCSC)NC(=O)C23CC4CC(CC(C4)C2)C3)cc1 (stereo not given) | 7.31 µM [rising, partial curve] | 

SMILES | AC50 [1] | AC50 [2]
CCn1c(C)nc2cc(-c3nnc(-c4c(-c5ccccc5)noc4C)o3)ccc21 | 7.08 µM [falling, partial curve, poor fit] | 
N#C/C(=C/c1ccncc1)c1nc2ccccc2s1 | 3.55 µM [falling, partial curve, poor fit] | 
CCN(CC)CCCN1C(=O)C(O)=C(C(=O)c2sc(C)nc2C)C1c1ccco1 (stereo not given) | 3.55 µM [rising, single point] | 
O=c1[nH]c(SCc2ccccc2)nc2c1sc1ccccc12 | 0.141 µM [rising, full curve, poor fit] | 
Cc1cc(NC(=O)/C=C/c2ccccc2)no1 | 29.1 µM [falling, single point] | 
CC(C)Oc1ccc(Nc2ncnc3ccccc23)cc1 | 2.24 µM [rising, partial curve, poor fit] | 
O=C(Nc1ccccc1Cl)C1CCN(S(=O)(=O)c2cccc3nonc23)CC1 | 1.58 µM [falling, partial curve, poor fit] | 
CCOc1c2ccc(C(=O)NCc3cc(C(F)(F)F)cc(C(F)(F)F)c3)cc2nn1C | 2.82 µM [rising, partial curve, poor fit] | 
CC(C)NC(=O)NC(=O)CSc1nnc(-c2c[nH]c3ccccc23)o1 | 22.4 µM [falling, partial curve, poor fit] | 
Cc1noc(C)c1COc1cccc(C(=O)NCc2cccc(Cl)c2)c1 | 25.1 µM [falling, single point] | 
O=C(/C=C/c1ccc([N+](=O)[O-])o1)NNC(=O)c1ccc(F)cc1 | 35.5 µM [falling, single point] | 
Cc1ccc(-n2ncc3c(=O)n(CC#N)cnc32)cc1 | 5.62 µM [rising, partial curve, poor fit] | 
COc1cccc(-c2coc3cc4oc(=O)c(CCC(=O)O)c(C)c4cc23)c1 | 2.51 µM [rising, partial curve, poor fit] | 
O=C(OCC(F)(F)F)c1cccc(COc2ccc3ccccc3c2)c1 | 1.84 µM [falling, full curve] | 
COc1cc(CCC(=O)OCC(=O)Nc2ccc(C)cc2Br)cc(OC)c1OC | 3.55 µM [rising, single point] | 
O=C(CSc1nccc(=O)[nH]1)Nc1ccc(Br)c(Cl)c1 | 6.31 µM [rising, single point] | 
CCCCNC(=O)Nc1cc(C(=O)OC)ccc1Cl | 20.6 µM [rising, partial curve] | 
Cc1cccc(OCC(=O)N(Cc2ccco2)c2c(N)n(Cc3ccccc3)c(=O)[nH]c2=O)c1 | 16.4 µM [falling, partial curve, poor fit] | 
CN1C(=O)c2ccccc2C(C(=O)O)C1c1cccc(F)c1 (stereo not given) | 3.16 µM [rising, full curve, poor fit] | 
COc1cc([N+](=O)[O-])ccc1NC(=O)Nc1ccc2c(c1)OCCO2 | 2.82 µM [rising, partial curve, poor fit] | 
